Reference: PMC11739200
These are yes or no findings as the source states them, for the method shown. In cells and extracts the contact can be indirect. Some results given as binding are weak or reduced against the parent protein; the word gives no strength. Tags and fused reporters may be left off the sequences shown.

By UniProt entry, the sequences of proteins in these tests, tags left out. Residues count along the entry.
UniProt P53115, residues 1-670: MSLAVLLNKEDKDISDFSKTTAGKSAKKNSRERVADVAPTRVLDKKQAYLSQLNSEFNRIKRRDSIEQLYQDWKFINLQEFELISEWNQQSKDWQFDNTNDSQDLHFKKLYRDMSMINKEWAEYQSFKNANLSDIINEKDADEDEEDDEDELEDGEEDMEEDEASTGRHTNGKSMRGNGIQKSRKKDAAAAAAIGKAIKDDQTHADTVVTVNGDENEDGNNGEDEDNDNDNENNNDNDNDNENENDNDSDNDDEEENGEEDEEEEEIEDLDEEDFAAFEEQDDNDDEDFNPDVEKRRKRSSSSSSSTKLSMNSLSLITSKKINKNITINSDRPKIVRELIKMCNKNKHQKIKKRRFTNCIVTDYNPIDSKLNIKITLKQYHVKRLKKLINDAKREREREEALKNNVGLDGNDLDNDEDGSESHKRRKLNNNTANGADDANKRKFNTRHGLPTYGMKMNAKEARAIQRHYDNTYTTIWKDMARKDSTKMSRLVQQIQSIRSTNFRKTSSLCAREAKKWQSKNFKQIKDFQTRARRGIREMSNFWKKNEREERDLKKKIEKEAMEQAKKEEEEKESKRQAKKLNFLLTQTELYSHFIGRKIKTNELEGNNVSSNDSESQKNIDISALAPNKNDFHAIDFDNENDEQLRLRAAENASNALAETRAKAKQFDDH
UniProt P18480, residues 1-334: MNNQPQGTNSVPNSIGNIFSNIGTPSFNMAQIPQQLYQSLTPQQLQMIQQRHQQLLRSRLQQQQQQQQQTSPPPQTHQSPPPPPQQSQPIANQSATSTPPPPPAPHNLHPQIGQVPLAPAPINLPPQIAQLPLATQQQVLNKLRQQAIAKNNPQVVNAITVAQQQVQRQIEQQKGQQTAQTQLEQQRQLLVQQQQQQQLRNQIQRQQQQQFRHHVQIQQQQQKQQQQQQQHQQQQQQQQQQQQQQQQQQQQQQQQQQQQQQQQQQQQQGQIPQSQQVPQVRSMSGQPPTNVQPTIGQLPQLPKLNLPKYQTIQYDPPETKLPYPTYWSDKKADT
UniProt P18888: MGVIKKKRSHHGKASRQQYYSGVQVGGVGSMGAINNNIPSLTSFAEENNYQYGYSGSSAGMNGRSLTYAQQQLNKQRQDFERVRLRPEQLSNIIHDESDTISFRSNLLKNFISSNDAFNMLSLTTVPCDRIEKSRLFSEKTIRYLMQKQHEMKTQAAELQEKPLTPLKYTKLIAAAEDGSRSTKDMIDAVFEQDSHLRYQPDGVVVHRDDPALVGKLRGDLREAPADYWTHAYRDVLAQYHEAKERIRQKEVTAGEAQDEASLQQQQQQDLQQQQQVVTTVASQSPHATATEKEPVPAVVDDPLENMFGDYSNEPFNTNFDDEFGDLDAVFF
UniProt P32597, residues 1-300: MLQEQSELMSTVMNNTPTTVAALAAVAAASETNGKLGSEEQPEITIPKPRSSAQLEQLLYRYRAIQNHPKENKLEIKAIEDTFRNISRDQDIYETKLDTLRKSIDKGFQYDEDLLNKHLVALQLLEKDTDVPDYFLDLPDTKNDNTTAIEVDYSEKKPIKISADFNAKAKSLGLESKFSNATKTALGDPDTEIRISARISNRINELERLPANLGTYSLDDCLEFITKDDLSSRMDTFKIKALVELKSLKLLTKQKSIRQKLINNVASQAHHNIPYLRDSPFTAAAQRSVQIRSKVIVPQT
UniProt P22082, residues 1-307: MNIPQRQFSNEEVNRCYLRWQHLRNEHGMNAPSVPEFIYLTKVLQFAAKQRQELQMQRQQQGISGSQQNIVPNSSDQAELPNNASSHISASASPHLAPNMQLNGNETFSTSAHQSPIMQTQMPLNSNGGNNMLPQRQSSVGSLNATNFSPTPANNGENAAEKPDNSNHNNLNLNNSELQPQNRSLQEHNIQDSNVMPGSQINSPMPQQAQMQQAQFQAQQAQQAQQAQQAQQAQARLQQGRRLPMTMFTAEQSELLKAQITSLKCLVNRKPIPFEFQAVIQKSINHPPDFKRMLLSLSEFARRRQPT
UniProt Q03761: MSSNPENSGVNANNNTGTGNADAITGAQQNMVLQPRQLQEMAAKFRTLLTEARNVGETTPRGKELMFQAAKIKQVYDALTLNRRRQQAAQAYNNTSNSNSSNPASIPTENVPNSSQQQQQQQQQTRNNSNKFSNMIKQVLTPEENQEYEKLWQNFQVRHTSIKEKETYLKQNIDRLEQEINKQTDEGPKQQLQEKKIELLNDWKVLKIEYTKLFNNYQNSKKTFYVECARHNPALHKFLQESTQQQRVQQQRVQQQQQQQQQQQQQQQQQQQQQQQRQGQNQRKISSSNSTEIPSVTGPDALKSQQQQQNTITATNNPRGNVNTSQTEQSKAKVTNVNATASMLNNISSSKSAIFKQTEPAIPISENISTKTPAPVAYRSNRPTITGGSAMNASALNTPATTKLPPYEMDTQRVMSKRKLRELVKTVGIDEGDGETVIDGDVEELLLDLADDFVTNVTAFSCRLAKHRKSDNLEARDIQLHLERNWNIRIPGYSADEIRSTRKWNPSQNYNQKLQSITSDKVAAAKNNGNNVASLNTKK

B1: Taf1 (aa 1-250), HA fusion (domain or fragment, UniProt P46677 1-250)
chain: MVKQQGSGKTNLANEDEAYEAIFGGEFGSLEIGSYIGGDEGANSKDYTEHLPDAVDFEDEDELADDDDDLPEESDANLHPAMMTMGAYDDVNENGAVLGIDSNSLNMQLPEINGDLSQQFILEDDGGTPATSNALFMGMDANEIHLATETGVLDGSGANEIGHSQLSIGGVNGNDMSINGGFIMEPDMSDGKHKKATKLDLINHEKYLLKKYFPDFEKGKILKWNKLIYRRSVPYHWHSEISRVKKPFMP
B2: Taf10, HA fusion (protein, UniProt Q12030 1-206)
chain: MDFEEDYDAEFDDNQEGQLETPFPSVAGADDGDNDNDDSVAENMKKKQKREAVVDDGSENAFGIPEFTRKDKTLEEILEMMDSTPPIIPDAVIDYYLTKNGFNVADVRVKRLLALATQKFVSDIAKDAYEYSRIRSSVAVSNANNSQARARQLLQGQQQPGVQQISQQQHQQNEKTTASKVVLTVNDLSSAVAEYGLNIGRPDFYR
B3: Toa1, HA fusion (protein, UniProt P32773 1-286)
chain: MSNAEASRVYEIIVESVVNEVREDFENAGIDEQTLQDLKNIWQKKLTETKVTTFSWDNQFNEGNINGVQNDLNFNLATPGVNSSEFNIKEENTGNEGLILPNINSNNNIPHSGETNINTNTVEATNNSGATLNTNTSGNTNADVTSQPKIEVKPEIELTINNANITTVENIDDESEKKDDEEKEEDVEKTRKEKEQIEQVKLQAKKEKRSALLDTDEVGSELDDSDDDYLISEGEEDGPDENLMLCLYDKVTRTKARWKCSLKDGVVTINRNDYTFQKAQVEAEWV
B4: Swi1 (aa 329-657), HA fusion (domain or fragment, UniProt P09547 329-657)
chain: RAAMFAALQQKQQQRFQALQQQQQQQQNQQQQNQQPQQQQQQQQNPKFLQSQRQQQQRSILQSLNPALQEKISTELNNKQYELFMKSLIENCKKRNMPLQSIPEIGNRKINLFYLYMLVQKFGGADQVTRTQQWSMVAQRLQISDYQQLESIYFRILLPYERHMISQEGIKETQAKRIFLQQFLQELLKKVQQQQQAAALANANNNINSASSAPTPAAPGASVPATAAPGTEAGIVPVSANTPKSLNSNININVNNNNIGQQQVKKPRKQRVKKKTKKELELERKEREDFQKRQQKLLEDQQRQQKLLLETKLRQQYEIELKKLPKVYK
B5: Taf4, HA fusion (protein, UniProt P50105 1-388)
chain: MANSPKKPSDGTGVSASDTPKYQHTVPETKPAFNLSPGKASELSHSLPSPSQIKSTAHVSSTHNDAAGNTDDSVLPKNVSPTTNLRVESNGDTNNMFSSPAGLALPKKDDKKKNKGTSKADSKDGKASNSSGQNAQQQSDPNKMQDVLFSAGIDVREEEALLNSSINASKSQVQTNNVKIPNHLPFLHPEQVSNYMRKVGKEQNFNLTPTKNPEILDMMSSACENYMRDILTNAIVISRHRRKAVKINSGRRSEVSAALRAIALIQKKEEERRVKKRIALGLEKEDYENKIDSEETLHRASNVTAGLRAGSKKQYGWLTSSVNKPTSLGAKSSGKVASDITARGESGLKFREAREEPGIVMRDLLFALENRRNSVQTIISKGYAKIRD
B6: Taf6, HA fusion (protein, UniProt P53040 1-516)
chain: MSTQQQSYTIWSPQDTVKDVAESLGLENINDDVLKALAMDVEYRILEIIEQAVKFKRHSKRDVLTTDDVSKALRVLNVEPLYGYYDGSEVNKAVSFSKVNTSGGQSVYYLDEEEVDFDRLINEPLPQVPRLPTFTTHWLAVEGVQPAIIQNPNLNDIRVSQPPFIRGAIVTALNDNSLQTPVTSTTASASVTDTGASQHLSNVKPGQNTEVKPLVKHVLSKELQIYFNKVISTLTAKSQADEAAQHMKQAALTSLRTDSGLHQLVPYFIQFIAEQITQNLSDLQLLTTILEMIYSLLSNTSIFLDPYIHSLMPSILTLLLAKKLGGSPKDDSPQEIHEFLERTNALRDFAASLLDYVLKKFPQAYKSLKPRVTRTLLKTFLDINRVFGTYYGCLKGVSVLEGESIRFFLGNLNNWARLVFNESGITLDNIEEHLNDDSNPTRTKFTKEETQILVDTVISALLVLKKDLPDLYEGKGEKVTDEDKEKLLERCGVTIGFHILKRDDAKELISAIFFGE

Target: T1, GST-Ino2 TAD1 (aa 1-35) (S. cerevisiae) (UniProt P26798)
T1 sequence: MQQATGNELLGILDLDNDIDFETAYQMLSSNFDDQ
Assay: pull-down; GST-TAD fusions immobilised on GSH sepharose, incubated with total protein extracts of yeast transformants containing HA fusions of coactivators; buffer SA-125 (20 mM HEPES pH 7.6, 1 mM DTT, 1 mM EDTA, 125 mM K-acetate, 20% glycerol, 1% NP-40); washed with PBS, eluted with free GSH; blot with anti-HA-peroxidase conjugate; only the target purified

| Molecule | binding |
| --- | --- |
| Ino80 (aa 1-670), HA fusion (from UniProt P53115 1-670) (domain or fragment) | binds |
| Snf5 (aa 1-334), HA fusion (from UniProt P18480 1-334) (domain or fragment) | binds |
| Snf6 (full-length), HA fusion (from UniProt P18888 1-332) | binds |
| Sth1 (aa 1-300), HA fusion (from UniProt P32597 1-300) (domain or fragment) | binds |
| Swi2 (aa 1-307), HA fusion (from UniProt P22082 1-307) (domain or fragment) | binds |
| Taf12, HA fusion (from UniProt Q03761 1-539) | binds |
| B1 | binds |
| B2 | binds |
| B3 | binds |
| B4 | binds |
| B5 | binds |
| B6 | binds |
